Assay results as given in patent US20240417437A1, “Linker Polypeptides” (Trutino Biosciences Inc., priority 2021, published 2024).
No constants are given. Whether binding was seen depends on the method and setting. Binding calls can cover weak binding; strength is not graded here.

Legend:
[1] = target: collagen cross-linked to agarose (Sigma); test: pulldown with collagen-agarose, SDS-PAGE and anti-mouse IL-2 immunoblot
[2] = target: collagen cross-linked to agarose (Sigma); test: collagen-agarose pulldown with control agarose, anti-mouse IL-2 immunoblot

- binding [1]: binds
- binding [2]: binds
B1: Construct II (collagen I): mIL2-…(SEQ ID NO: 665)-MMPcs1-2x(G4S)-mIL2Ra(1-215)-muIgG1Fc (Fc fusion)
chain: APTSSSTSSSTAEAQQQQQQQQQQQQHLEQLLMDLQELLSRMENYRNLKLPRMLTFKFYLPKQATELKDLQCLEDELGPLRHVLDLTQSKSFQLEDAENFISNIRVTVVKLKGSDNTFECQFDDESATVVDFLRRWIAFCQSIISTSPQSLHERHLNNNGPLGVRGGGGGSGGGGSELCLYDPPEVPNATFKALSYKNGTILNCECKRGFRRLKELVYMRCLGNSWSSNCQCTSNSHDKSRKQVTAQLEHQKEQQTTTDMQKPTQSMHQENLTGHCREPPPWKHEDSKRIYHFVEGQSVHYECIPGYKALQRGPAISICKMKCGKTGWTQPQLTCVDEREHHRFLASEESQGSRNSSPESETSCPITTTDFPQPTETTAMTETFVLTMEYKGCKPCICTVPEVSSVFIFPPKPKDVLTITLTPKVTCVVVDISKDDPEVQFSWFVDDVEVHTAQTQPREEQFNSTFRSVSELPIMHQDWLNGKEFKCRVNSAAFPAPIEKTISKTKGRPKAPQVYTIPPPKEQMAKDKVSLTCMITDFFPEDITVEWQWNGQPAENYKNTQPIMDTDGSYFVYSKLNVQKSNWEAGNTFTCSVLHEGLHNHHTEKSLSHSPGK
